Data published in article PMC12000498.

Chains of the proteins cited; added tags and fusions are not shown.
UniProt Q9Z2G0: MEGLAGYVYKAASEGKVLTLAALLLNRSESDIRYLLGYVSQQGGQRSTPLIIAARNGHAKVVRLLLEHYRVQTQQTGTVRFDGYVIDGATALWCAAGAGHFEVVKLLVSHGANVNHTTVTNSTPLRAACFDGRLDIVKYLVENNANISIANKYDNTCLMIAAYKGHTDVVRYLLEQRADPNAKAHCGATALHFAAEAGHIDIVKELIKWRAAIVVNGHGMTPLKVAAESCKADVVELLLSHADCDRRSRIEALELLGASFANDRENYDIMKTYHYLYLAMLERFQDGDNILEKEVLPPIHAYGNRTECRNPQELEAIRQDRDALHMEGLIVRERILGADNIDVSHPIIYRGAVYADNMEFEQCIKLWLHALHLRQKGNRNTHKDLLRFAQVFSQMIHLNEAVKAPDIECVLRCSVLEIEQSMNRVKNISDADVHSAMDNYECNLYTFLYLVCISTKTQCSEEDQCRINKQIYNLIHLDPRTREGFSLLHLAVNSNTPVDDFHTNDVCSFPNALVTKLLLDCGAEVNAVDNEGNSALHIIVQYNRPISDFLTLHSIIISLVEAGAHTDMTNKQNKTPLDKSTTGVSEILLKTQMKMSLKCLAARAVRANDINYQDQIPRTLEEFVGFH

Biological target: Flag-tagged Fem1b (UniProt Q9Z2G0)
Test: affinity purification with mass spectrometry; Flag-Fem1b stably expressed in skeletal cells; lysate in IP buffer immunoprecipitated with anti-Flag affinity gel; eluate resolved by SDS-PAGE, trypsin digest, LC-MS

binding: binds
B1: Pdik1l (skeletal cells) (protein, UniProt Q8QZR7 1-341)
chain: MVSSQPKYDLIREVGRGSYGVVYEAVIRKTSARVAVKKIRCHAPENVELALREFWALSSIKSQHPNVIHLEECILQKDGMVQKMSHGSNSSLYLQLVETSLKGEIAFDPRSAYYLWFVMDFCDGGDMNEYLLSRKPNRKTNTSFMLQLSSALAFLHKNQIIHRDLKPDNILISQSRMDTSDLEPTLKVADFGLSKVCSASGQNPEEPVSVNKCFLSTACGTDFYMAPEVWEGHYTAKADIFALGIIIWAMLERITFIDTETKKELLGSYVKQGTEIVPVGEALLENPKMELLIPVKKKSMNGRMKQLIKEMLAANPQDRPDAFELELRLVQIAFKDSSWET

Results are given in words; binding and its absence hold for the method and conditions named. In cells and extracts the contact can be indirect. A yes stands for co-enrichment or nearness to the bait. Other partners may have been found.
